Our source for the binding values is publication PMC10682204.

Results are given in words; binding and its absence hold for the method and conditions named. Binding can be weak; no strength is given.

In test [1] the target is PtrBPL1 (Populus trichocarpa). Nature of the test: two-hybrid; Matchmaker GAL4-based system, yeast AH109; PtrBPL baits fused to the GAL4 DNA-binding domain, AtTGA preys fused to the GAL4 activation domain; dilution series on SC/-Leu/-Trp/-His plus 10 mM 3-AT, His reporter growth above background.
Test [2] concerns the target PtrBPL2 (Populus trichocarpa). Described as above.

B1: AtTGA8/PAN (protein, UniProt Q9SX27 1-452)
chain: MQSSFKTVPFTPDFYSQSSYFFRGDSCLEEFHQPVNGFHHEEAIDLSPNVTIASANLHYTTFDTVMDCGGGGGGGLRERLEGGEEECLDTGQLVYQKGTRLVGGGVGEVNSSWCDSVSAMADNSQHTDTSTDIDTDDKTQLNGGHQGMLLATNCSDQSNVKSSDQRTLRRLAQNREAARKSRLRKKAYVQQLENSRIRLAQLEEELKRARQQGSLVERGVSADHTHLAAGNGVFSFELEYTRWKEEHQRMINDLRSGVNSQLGDNDLRVLVDAVMSHYDEIFRLKGIGTKVDVFHMLSGMWKTPAERFFMWLGGFRSSELLKILGNHVDPLTDQQLIGICNLQQSSQQAEDALSQGMEALQQSLLETLSSASMGPNSSANVADYMGHMAMAMGKLGTLENFLRQADLLRQQTLQQLHRILTTRQAARAFLVIHDYISRLRALSSLWLARPRD
Regarding B1, the binding entry in test [1] and in test [2] was “binds” each time.

B2: AtTGA4 (protein, UniProt Q39162 1-364)
chain: MNTTSTHFVPPRRFEVYEPLNQIGMWEESFKNNGDMYTPGSIIIPTNEKPDSLSEDTSHGTEGTPHKFDQEASTSRHPDKIQRRLAQNREAARKSRLRKKAYVQQLETSRLKLIHLEQELDRARQQGFYVGNGVDTNALSFSDNMSSGIVAFEMEYGHWVEEQNRQICELRTVLHGQVSDIELRSLVENAMKHYFQLFRMKSAAAKIDVFYVMSGMWKTSAERFFLWIGGFRPSELLKVLLPHFDPLTDQQLLDVCNLRQSCQQAEDALSQGMEKLQHTLAESVAAGKLGEGSYIPQMTCAMERLEALVSFVNQADHLRHETLQQMHRILTTRQAARGLLALGEYFQRLRALSSSWAARQREPT
Consider B2, for which the binding entry in test [1] and in test [2] was “binds” each time.
